Reference: the supplement of paper PMC10849652
Some of the results follow.

Protein sequences, listed by entry. Tags and fused reporters are not part of them. Lines headed by an entry give the natural chain unless they say otherwise; changes in a name come on top.
UniProt Q8TBC4: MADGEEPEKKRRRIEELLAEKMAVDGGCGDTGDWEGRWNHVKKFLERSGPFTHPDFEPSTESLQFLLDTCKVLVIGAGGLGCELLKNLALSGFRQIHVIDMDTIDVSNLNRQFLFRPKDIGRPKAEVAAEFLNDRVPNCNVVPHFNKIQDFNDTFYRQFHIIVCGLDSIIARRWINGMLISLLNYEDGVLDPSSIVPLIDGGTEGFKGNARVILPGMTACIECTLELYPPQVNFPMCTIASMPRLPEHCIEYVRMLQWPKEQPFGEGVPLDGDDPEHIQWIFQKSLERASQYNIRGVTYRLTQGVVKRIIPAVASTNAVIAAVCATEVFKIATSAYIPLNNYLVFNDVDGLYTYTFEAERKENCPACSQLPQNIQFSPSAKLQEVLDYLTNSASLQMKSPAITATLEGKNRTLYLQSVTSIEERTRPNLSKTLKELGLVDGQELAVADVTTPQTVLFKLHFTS
UniProt Q6IBS0: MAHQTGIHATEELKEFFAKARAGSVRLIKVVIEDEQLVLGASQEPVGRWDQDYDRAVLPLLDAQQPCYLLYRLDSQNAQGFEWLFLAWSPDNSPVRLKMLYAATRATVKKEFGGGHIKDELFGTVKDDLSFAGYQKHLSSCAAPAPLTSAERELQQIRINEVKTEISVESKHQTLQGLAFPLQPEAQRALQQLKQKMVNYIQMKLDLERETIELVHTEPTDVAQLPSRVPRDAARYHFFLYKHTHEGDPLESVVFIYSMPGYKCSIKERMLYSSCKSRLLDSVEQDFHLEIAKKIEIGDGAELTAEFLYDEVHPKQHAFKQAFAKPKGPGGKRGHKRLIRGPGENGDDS
UniProt O14933: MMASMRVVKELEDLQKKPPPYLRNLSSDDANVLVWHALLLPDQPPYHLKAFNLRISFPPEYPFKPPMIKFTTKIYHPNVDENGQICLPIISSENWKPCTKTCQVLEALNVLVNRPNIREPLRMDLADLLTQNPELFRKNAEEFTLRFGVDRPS
UniProt Q16881, whole entry, looked up: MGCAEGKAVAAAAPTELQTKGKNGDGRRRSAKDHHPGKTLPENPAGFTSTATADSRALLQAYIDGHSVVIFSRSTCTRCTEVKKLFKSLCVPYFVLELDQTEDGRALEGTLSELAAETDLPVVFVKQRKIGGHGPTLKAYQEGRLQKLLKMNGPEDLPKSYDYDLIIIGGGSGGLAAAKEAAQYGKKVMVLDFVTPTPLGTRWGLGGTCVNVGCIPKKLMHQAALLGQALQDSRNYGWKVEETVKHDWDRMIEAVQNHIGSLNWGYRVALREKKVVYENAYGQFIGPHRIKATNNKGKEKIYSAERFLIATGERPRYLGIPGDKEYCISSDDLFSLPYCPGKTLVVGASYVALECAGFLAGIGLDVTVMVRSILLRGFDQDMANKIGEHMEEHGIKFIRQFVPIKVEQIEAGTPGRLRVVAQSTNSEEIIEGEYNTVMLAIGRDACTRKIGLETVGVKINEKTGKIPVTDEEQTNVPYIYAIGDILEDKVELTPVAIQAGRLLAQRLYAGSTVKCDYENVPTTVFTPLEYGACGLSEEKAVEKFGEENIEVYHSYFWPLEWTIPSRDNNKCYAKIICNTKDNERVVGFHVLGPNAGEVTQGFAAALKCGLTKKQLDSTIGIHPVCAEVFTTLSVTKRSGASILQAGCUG
UniProt Q5VYS8: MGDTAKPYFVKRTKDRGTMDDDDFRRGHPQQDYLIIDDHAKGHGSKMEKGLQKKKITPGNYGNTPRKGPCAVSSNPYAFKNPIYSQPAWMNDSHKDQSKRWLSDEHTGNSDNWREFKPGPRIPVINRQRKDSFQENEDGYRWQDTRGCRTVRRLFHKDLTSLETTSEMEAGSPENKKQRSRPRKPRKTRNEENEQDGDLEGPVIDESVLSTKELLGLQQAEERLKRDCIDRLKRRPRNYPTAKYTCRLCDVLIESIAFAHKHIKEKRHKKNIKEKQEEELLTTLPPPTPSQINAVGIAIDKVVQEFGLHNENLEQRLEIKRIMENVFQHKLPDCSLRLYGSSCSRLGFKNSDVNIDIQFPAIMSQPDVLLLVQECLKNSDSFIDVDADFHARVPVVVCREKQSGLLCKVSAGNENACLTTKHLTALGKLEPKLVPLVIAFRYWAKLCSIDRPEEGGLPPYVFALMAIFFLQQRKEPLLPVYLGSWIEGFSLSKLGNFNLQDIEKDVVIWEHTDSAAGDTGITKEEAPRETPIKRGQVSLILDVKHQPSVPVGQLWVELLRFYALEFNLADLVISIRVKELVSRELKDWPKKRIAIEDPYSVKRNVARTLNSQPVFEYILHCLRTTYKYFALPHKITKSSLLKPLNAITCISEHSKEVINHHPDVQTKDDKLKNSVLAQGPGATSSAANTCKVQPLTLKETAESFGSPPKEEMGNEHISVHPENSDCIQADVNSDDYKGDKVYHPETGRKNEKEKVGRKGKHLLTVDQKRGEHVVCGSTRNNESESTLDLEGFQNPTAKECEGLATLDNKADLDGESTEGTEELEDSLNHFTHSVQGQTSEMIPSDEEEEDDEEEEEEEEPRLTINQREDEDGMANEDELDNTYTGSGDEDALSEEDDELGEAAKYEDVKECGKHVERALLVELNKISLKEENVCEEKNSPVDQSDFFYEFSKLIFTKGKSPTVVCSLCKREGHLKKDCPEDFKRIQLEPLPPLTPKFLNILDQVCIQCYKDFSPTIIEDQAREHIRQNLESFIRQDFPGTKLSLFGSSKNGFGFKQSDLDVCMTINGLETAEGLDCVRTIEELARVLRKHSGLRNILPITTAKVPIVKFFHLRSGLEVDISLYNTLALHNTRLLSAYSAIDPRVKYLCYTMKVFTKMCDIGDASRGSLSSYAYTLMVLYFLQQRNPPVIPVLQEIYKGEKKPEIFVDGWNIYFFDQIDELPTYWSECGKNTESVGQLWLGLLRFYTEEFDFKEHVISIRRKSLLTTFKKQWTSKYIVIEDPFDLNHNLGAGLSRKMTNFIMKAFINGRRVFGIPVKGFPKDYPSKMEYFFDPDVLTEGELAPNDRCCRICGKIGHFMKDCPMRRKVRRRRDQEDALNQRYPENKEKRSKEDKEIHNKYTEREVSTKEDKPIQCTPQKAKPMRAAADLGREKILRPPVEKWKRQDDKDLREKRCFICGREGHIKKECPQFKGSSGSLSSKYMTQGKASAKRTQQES
UniProt Q6IPR3: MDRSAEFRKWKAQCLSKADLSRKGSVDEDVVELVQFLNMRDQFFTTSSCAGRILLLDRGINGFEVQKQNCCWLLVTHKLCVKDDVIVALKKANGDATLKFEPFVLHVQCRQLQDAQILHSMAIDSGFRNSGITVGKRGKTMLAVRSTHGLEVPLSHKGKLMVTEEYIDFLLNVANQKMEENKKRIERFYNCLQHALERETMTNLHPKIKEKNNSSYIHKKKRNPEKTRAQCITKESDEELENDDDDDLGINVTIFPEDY
UniProt Q9BQE3, whole entry, looked up: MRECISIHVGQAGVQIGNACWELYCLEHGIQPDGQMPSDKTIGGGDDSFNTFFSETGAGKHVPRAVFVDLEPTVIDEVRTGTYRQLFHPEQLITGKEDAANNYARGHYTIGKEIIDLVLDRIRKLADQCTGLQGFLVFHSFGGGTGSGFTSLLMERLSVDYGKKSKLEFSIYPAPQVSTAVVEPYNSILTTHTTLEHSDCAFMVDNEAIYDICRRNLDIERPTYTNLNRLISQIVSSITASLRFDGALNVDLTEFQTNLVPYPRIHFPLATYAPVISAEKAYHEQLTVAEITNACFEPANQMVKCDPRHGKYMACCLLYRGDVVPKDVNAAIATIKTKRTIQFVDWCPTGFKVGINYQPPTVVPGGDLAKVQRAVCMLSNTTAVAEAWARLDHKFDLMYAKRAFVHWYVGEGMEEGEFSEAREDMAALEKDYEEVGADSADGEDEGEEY
UniProt Q9NPD8: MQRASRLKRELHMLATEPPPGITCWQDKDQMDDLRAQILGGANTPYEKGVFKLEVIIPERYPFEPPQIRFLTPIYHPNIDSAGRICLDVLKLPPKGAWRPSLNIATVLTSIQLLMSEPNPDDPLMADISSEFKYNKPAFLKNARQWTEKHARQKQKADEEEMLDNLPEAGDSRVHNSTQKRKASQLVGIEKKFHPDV
UniProt Q15819: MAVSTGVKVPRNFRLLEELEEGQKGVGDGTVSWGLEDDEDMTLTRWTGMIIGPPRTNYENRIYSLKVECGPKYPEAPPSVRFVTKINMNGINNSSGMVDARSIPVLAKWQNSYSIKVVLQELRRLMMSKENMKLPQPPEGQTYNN
UniProt P61086: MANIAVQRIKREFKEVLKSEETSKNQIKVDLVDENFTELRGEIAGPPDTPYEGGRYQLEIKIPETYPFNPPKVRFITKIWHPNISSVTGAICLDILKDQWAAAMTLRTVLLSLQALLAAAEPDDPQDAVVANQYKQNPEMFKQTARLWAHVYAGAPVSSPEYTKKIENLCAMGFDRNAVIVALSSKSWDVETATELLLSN
UniProt Q13454: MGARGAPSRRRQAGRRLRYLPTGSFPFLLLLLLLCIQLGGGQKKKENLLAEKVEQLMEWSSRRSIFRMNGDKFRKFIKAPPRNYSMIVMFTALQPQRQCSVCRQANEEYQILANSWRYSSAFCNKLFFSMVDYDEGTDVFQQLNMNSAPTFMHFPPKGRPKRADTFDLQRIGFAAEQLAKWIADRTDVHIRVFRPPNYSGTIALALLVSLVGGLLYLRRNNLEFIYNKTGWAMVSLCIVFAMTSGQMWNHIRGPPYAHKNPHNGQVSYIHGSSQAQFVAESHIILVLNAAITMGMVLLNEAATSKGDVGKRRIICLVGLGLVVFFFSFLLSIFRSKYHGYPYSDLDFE
UniProt Q96RR1: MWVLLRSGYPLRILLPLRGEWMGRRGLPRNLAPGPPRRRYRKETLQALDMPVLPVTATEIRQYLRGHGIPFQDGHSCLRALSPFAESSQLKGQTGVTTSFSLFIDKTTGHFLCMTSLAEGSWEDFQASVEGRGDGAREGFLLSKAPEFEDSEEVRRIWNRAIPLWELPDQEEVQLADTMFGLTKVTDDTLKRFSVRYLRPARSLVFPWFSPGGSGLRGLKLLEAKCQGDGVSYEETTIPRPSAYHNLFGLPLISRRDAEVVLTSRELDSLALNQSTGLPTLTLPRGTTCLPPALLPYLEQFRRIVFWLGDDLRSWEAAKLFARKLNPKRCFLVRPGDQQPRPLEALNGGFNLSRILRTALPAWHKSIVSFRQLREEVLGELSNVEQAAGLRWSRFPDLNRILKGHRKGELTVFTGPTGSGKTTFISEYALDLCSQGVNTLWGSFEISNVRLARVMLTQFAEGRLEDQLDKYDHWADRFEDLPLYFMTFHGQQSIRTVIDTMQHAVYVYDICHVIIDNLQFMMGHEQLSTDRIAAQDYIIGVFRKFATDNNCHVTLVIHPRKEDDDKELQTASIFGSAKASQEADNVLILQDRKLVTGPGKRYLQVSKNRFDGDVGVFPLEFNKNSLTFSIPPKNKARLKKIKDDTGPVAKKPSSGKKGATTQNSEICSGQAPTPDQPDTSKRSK
UniProt Q9Y5Z9: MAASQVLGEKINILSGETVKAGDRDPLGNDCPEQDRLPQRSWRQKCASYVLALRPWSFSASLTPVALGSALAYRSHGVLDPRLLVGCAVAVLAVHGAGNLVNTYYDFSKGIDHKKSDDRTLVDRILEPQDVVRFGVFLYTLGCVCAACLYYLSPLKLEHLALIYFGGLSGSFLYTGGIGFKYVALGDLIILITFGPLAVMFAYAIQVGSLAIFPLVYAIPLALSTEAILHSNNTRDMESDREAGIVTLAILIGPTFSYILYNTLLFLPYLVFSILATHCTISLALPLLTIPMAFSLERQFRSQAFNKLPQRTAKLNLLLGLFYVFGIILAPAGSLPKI
UniProt Q9NZ09: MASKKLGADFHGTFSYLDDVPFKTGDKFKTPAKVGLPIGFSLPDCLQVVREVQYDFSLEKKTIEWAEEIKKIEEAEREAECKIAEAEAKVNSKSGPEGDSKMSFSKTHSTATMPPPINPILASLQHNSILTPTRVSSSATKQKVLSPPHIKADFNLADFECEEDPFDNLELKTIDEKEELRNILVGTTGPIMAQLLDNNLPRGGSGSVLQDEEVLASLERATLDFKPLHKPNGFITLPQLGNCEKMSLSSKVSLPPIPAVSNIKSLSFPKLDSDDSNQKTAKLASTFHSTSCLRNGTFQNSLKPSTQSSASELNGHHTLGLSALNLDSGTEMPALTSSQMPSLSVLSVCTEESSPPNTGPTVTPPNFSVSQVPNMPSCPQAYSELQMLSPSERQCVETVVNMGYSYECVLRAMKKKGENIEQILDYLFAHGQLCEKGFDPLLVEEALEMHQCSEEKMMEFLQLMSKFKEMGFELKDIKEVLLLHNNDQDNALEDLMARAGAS
UniProt Q8WVY7: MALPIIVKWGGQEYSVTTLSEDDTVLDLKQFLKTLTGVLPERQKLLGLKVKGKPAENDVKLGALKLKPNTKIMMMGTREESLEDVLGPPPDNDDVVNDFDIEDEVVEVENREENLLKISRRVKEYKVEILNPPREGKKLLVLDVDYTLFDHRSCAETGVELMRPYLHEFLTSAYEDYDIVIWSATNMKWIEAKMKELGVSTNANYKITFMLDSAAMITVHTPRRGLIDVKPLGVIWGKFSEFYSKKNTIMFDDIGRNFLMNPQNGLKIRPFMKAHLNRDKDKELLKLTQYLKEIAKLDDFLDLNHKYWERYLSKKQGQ

Assays:
Experiment in all cases: log2 fold change, soluble protein after heating vs DMSO (PISA); higher = thermal stabilisation; K562 lysate, 10 uM; active = over 0.2 and 3.5 SD of the protein, either way, in both replicates (recomputed)
erlotinib = compound: C#Cc1cccc(Nc2ncnc3cc(OCCOC)c(OCCOC)cc23)c1 [erlotinib]
Summary of the method: (§1)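 Log-two fold change in thermal stability relative to solvent controls is reported from duplicates. For each sample, crude K562 extract from dounce-homogenised pellets in PBS pH 7.4 with 1 mM MgCl2, at 1 mg/mL protein, was treated with 10 μM compound for 30 min. Aliquots heated for 3 min across 48°C-58°C were pooled, brought to 0.5% NP-40 at 4°C and cleared at 21,000xg for 90 min. The supernatant was quantified by TMTpro 16plex LC-MS/MS with channel sums equalised.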

[1] = compound: C/C(=N\NC(=O)C1=CC(=CC=C1)S(=O)(=O)N2CCOCC2)/C3=C(C=CC(=C3)Cl)O
Summary of the method: as §1

[2] = compound: C1=CC(=CC=C1C2=NC3=C(N2)C=C(C=C3)C(=O)N)OC4=CC=C(C=C4)Cl
Summary of the method: as §1

[3] = compound: C1=CC2=C(C=CC(=C2)/C=C\3/C(=O)NC(=NCC4=CC=CS4)S3)N=C1
Summary of the method: as §1

[4] = compound: C1=CC2=NC=CN=C2C=C1/C=C/3\C(=O)NC(=O)S3
Summary of the method: as §1

[5] = compound: C1=CC=C(C=C1)C2=NC(=C(N2)C3=CC=NC=C3)C4=CC(=C(C=C4)Cl)O
Summary of the method: as §1

[6] = compound: C1=CC=C2C(=C1)C3=NNC4=CC=CC(=C43)C2=O
Summary of the method: as §1

[7] = compound: C1CCN(C1)C(=O)NC2=CC=CC(=C2)NC3=NC=C(C(=N3)NCCC4=CN=CN4)Br
Summary of the method: as §1

[8] = compound: C1CN(CCC1(CC2=CC=C(C=C2)Cl)N)C3=NC=NC4=C3C=CN4
Summary of the method: as §1

IRAK-1-4 Inhibitor I = compound: C1COCCN1CCN2C3=CC=CC=C3N=C2NC(=O)C4=CC(=CC=C4)[N+](=O)[O-] [IRAK-1-4 Inhibitor I]
Summary of the method: as §1

Measured: log2 fold change

UBA3 (UniProt Q8TBC4)
inactive: erlotinib 0 | [1] 0.033 | [2] 0 | [3] -0.023 | [4] 0.003 | [5] 0.016 | [6] -0.035 | [7] -0.008 | [8] 0.021 | IRAK-1-4 Inhibitor I 0.014

UBXN2B (UniProt Q14CS0)
inactive: erlotinib -0.008 | [1] -0.079 | [2] 0.073 | [3] -0.045 | [4] -0.01 | [5] -0.062 | [6] 0.149 | [7] -0.04 | [8] -0.046 | IRAK-1-4 Inhibitor I -0.028

TWF2 (UniProt Q6IBS0)
inactive: erlotinib -0.007 | [1] -0.001 | [2] 0.029 | [3] 0.002 | [4] -0.019 | [5] -0.008 | [6] 0.006 | [7] -0.007 | [8] 0.011 | IRAK-1-4 Inhibitor I 0.002

Two entries drawn at random from the list so far:
UBXN2B (UniProt Q14CS0)
inactive: erlotinib -0.008 | [1] -0.079 | [2] 0.073 | [3] -0.045 | [4] -0.01 | [5] -0.062 | [6] 0.149 | [7] -0.04 | [8] -0.046 | IRAK-1-4 Inhibitor I -0.028

TWF2 (UniProt Q6IBS0)
inactive: erlotinib -0.007 | [1] -0.001 | [2] 0.029 | [3] 0.002 | [4] -0.019 | [5] -0.008 | [6] 0.006 | [7] -0.007 | [8] 0.011 | IRAK-1-4 Inhibitor I 0.002

The results go on.

UBE2L6 (UniProt O14933)
inactive: erlotinib 0.062 | [1] -0.03 | [2] 0.007 | [3] -0.003 | [4] -0.065 | [5] -0.001 | [6] 0.023 | [7] -0.014 | [8] 0.144 | IRAK-1-4 Inhibitor I 0.047

UBQLN4 (UniProt Q9NRR5)
inactive: erlotinib -0.031 | [1] 0.068 | [2] 0.047 | [3] 0.016 | [4] -0.019 | [5] 0.025 | [6] 0.018 | [7] 0.022 | [8] 0.031 | IRAK-1-4 Inhibitor I 0.02

UBE2M (UniProt P61081)
inactive: erlotinib -0.009 | [1] 0.074 | [2] -0.017 | [3] 0.01 | [4] -0.013 | [5] 0.005 | [6] 0.004 | [7] 0 | [8] 0.027 | IRAK-1-4 Inhibitor I 0.006

TXNRD1 (UniProt Q16881)
inactive: erlotinib -0.005 | [1] -0.024 | [2] 0.009 | [3] -0.026 | [4] 0.012 | [5] -0.003 | [6] 0.009 | [7] 0.024 | [8] 0.004 | IRAK-1-4 Inhibitor I 0.001

TWF1 (UniProt Q12792)
inactive: erlotinib -0.047 | [1] 0.037 | [2] -0.009 | [3] -0.044 | [4] 0 | [5] -0.047 | [6] -0.008 | [7] 0.023 | [8] 0.002 | IRAK-1-4 Inhibitor I 0.059

UBA1 (UniProt P22314)
inactive: erlotinib 0.034 | [1] 0.017 | [2] -0.022 | [3] 0.003 | [4] 0.004 | [5] 0.002 | [6] -0.044 | [7] 0 | [8] 0.02 | IRAK-1-4 Inhibitor I -0.013

UBAC2 (UniProt Q8NBM4)
inactive: erlotinib 0.024 | [1] 0.015 | [2] -0.039 | [3] 0 | [4] -0.074 | [5] 0.038 | [6] 0.011 | [7] -0.257 | [8] -0.009 | IRAK-1-4 Inhibitor I 0.068

TXNDC12 (UniProt O95881)
inactive: erlotinib -0.03 | [1] -0.034 | [2] -0.021 | [3] -0.012 | [4] 0.03 | [5] -0.008 | [6] 0.033 | [7] 0.025 | [8] -0.035 | IRAK-1-4 Inhibitor I 0.001

TUT7 (UniProt Q5VYS8)
inactive: erlotinib 0.029 | [1] -0.107 | [2] -0.049 | [3] 0.052 | [4] 0.064 | [5] -0.025 | [6] -0.045 | [7] 0.022 | [8] 0.057 | IRAK-1-4 Inhibitor I 0.073

UCHL3 (UniProt P15374)
inactive: erlotinib -0.018 | [1] 0.053 | [2] -0.005 | [3] -0.001 | [4] -0.066 | [5] -0.039 | [6] 0.007 | [7] 0.02 | [8] 0.004 | IRAK-1-4 Inhibitor I -0.007

UBXN2A (UniProt P68543)
inactive: erlotinib -0.029 | [1] -0.017 | [2] 0.082 | [3] 0.058 | [4] -0.108 | [5] 0.028 | [6] -0.176 | IRAK-1-4 Inhibitor I 0.024

TTPAL (UniProt Q9BTX7)
inactive: erlotinib -0.012 | [1] 0.006 | [2] 0.002 | [3] -0.016 | [4] 0.029 | [5] 0.039 | [6] 0.016 | [7] 0.024 | [8] 0.036 | IRAK-1-4 Inhibitor I 0.071

TYW3 (UniProt Q6IPR3)
inactive: erlotinib -0.002 | [1] 0.003 | [2] 0.063 | [3] -0.032 | [4] -0.008 | [5] 0.002 | [6] -0.07 | [7] -0.054 | [8] 0.014 | IRAK-1-4 Inhibitor I 0.018

TUBA4A (UniProt P68366)
inactive: erlotinib 0.074 | [1] 0.019 | [2] -0.017 | [3] -0.034 | [4] -0.01 | [5] -0.036 | [6] -0.017 | [7] 0 | [8] 0.036 | IRAK-1-4 Inhibitor I 0.032

TUT4 (UniProt Q5TAX3)
inactive: erlotinib -0.009 | [1] -0.048 | [2] -0.014 | [3] -0.062 | [4] -0.054 | [5] -0.004 | [6] -0.021 | [7] -0.029 | [8] 0.019 | IRAK-1-4 Inhibitor I 0.023

TUBA1C (UniProt Q9BQE3)
inactive: erlotinib 0.007 | [1] -0.028 | [2] 0.044 | [3] -0.019 | [4] -0.012 | [5] 0.031 | [6] -0.077 | [7] -0.008 | [8] 0.014 | IRAK-1-4 Inhibitor I 0.04

UBE2T (UniProt Q9NPD8)
inactive: erlotinib 0.015 | [1] 0.011 | [2] -0.027 | [3] -0.016 | [4] 0.002 | [5] -0.019 | [6] -0.05 | [7] -0.017 | [8] -0.004 | IRAK-1-4 Inhibitor I -0.004

UBE2V2 (UniProt Q15819)
inactive: erlotinib -0.026 | [1] 0.022 | [2] 0.036 | [3] -0.009 | [4] -0.033 | [5] 0.001 | [6] 0.006 | [7] 0.025 | [8] 0.017 | IRAK-1-4 Inhibitor I 0.021

UBE2K (UniProt P61086)
inactive: erlotinib 0.014 | [1] 0.021 | [2] 0.033 | [3] 0.002 | [4] 0.009 | [5] 0.004 | [6] 0.023 | [7] 0.006 | [8] 0.036 | IRAK-1-4 Inhibitor I 0.007

UBR1 (UniProt Q8IWV7)
inactive: erlotinib 0.01 | [1] 0.058 | [2] -0.055 | [3] -0.002 | [4] 0.026 | [5] 0.015 | [6] -0.016 | [7] -0.047 | [8] 0.008 | IRAK-1-4 Inhibitor I 0.002

TUSC3 isoform 2 (UniProt Q13454)
inactive: erlotinib -0.013 | [1] 0.108 | [2] -0.063 | [3] -0.101 | [4] 0 | [5] -0.012 | [6] -0.046 | [7] -0.012 | [8] 0.053 | IRAK-1-4 Inhibitor I 0.019

TUBB2A (UniProt Q13885)
inactive: erlotinib 0.008 | [1] 0.04 | [2] 0.004 | [3] -0.021 | [4] -0.028 | [5] -0.008 | [6] -0.03 | [7] 0.014 | [8] 0.026 | IRAK-1-4 Inhibitor I 0.019

TWNK (UniProt Q96RR1)
inactive: erlotinib 0.134 | [1] -0.156 | [2] 0.048 | [3] -0.114 | [4] 0.049 | [5] 0 | [6] -0.146 | [7] -0.095 | [8] 0.178 | IRAK-1-4 Inhibitor I 0.26

UBQLN1 isoform 2 (UniProt Q9UMX0)
inactive: erlotinib -0.004 | [1] 0.183 | [2] -0.185 | [3] 0.123 | [5] 0 | [6] -0.081 | [7] 0.031 | [8] 0.164 | IRAK-1-4 Inhibitor I -0.027

TXNDC16 (UniProt Q9P2K2)
inactive: erlotinib -0.062 | [1] 0.023 | [2] -0.047 | [3] 0.014 | [5] -0.126 | [6] 0.055 | IRAK-1-4 Inhibitor I 0.066

UBIAD1 (UniProt Q9Y5Z9)
inactive: erlotinib 0.013 | [1] 0.16 | [2] -0.128 | [3] 0.092 | [5] 0.249 | [7] 0.023 | [8] 0.057 | IRAK-1-4 Inhibitor I -0.042
active: [6] 0.46

UBAP1 (UniProt Q9NZ09)
inactive: erlotinib -0.044 | [1] -0.04 | [2] 0.054 | [3] -0.003 | [4] 0.024 | [5] 0.088 | [6] 0.044 | [7] 0.046 | [8] 0.004 | IRAK-1-4 Inhibitor I 0.07

UBE2G2 (UniProt P60604)
inactive: erlotinib 0.129 | [1] -0.05 | [2] -0.105 | [3] -0.048 | [5] -0.048 | [6] -0.125 | [7] -0.155 | [8] 0 | IRAK-1-4 Inhibitor I 0.058

UBE2W isoform 3 (UniProt Q96B02)
inactive: erlotinib 0.117 | [1] -0.027 | [2] 0.051 | [3] 0.117 | [4] -0.083 | [6] 0.004

UBLCP1 (UniProt Q8WVY7)
inactive: erlotinib -0.009 | [1] 0.032 | [2] 0.034 | [3] 0.013 | [4] -0.031 | [5] 0.022 | [6] 0.088 | [7] 0.132 | [8] 0.034 | IRAK-1-4 Inhibitor I -0.019
